Here are results for one molecule from PMC2602725.

Sequences of proteins named here, by UniProt entry; tags and fusion partners are left off.
UniProt Q03347: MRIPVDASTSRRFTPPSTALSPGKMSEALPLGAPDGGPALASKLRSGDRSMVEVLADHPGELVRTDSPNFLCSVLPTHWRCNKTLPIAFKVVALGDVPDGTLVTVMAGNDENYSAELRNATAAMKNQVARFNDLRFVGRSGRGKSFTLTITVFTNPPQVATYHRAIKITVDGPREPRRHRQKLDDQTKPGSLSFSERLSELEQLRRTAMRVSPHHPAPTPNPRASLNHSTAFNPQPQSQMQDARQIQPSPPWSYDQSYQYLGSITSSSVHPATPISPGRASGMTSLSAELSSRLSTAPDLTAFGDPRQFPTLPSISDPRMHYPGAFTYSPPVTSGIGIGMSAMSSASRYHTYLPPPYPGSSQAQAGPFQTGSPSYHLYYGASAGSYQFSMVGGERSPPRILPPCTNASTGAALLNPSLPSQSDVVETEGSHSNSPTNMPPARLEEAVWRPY

Results are given in words; binding and its absence hold for the method and conditions named. In cells and extracts the contact can be indirect. Some results given as binding are weak or reduced against the parent protein; the word gives no strength. Where a sequence is shown, tags or fusion partners need not be part of it.

This assay has as its target Myc-tagged Runx1 (UniProt Q03347). As to the kind of experiment: co-IP; COS7 cells transfected for 48 h; lysed in NTN buffer containing 0.5% NP-40 and 0.5% Triton X-100; lysate incubated with anti-myc antibody overnight at 4 °C, Protein G-Sepharose 2 h, four washes; immunoblot with anti-FLAG.

B1: FLAG-tagged Twist-2 (protein, UniProt Q9D030 1-160)
chain: MEEGSSSPVSPVDSLGTSEEELERQPKRFGRKRRYSKKSSEDGSPTPGKRGKKGSPSAQSFEELQSQRILANVRERQRTQSLNEAFAALRKIIPTLPSDKLSKIQTLKLAARYIDFLYQVLQSDEMDNKMTSCSYVAHERLSYAYSVWRMEGAWSMSASH
For the molecule B1, the binding entry is on record as “binds”.
